# The other results are listed elsewhere or left out. These are raw signals, not scaled to a control.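 In the initial screen, polymyxin B was used at a concentration that permeabilizes Salmonella's outer membrane but not its inner membrane. Maximum growth was set by DMSO wells with or without polymyxin B. Since plates varied, data were ranked per plate, and compounds giving the lowest OD600 advanced as hits.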
# Tested on: Salmonella enterica serovar Typhimurium SL1344
# Assay: bacterial growth OD600 after 18 h with compound and polymyxin B; higher = more bacterial growth (less inhibition)
# Settings: 50 µM, Mueller-Hinton broth
SMILES,bacterial growth OD600 (polymyxin B 0.75 µg/mL),bacterial growth OD600 (polymyxin B 1 µg/mL)
C=CCO[C@H]1[C@H](NC(=O)COC)c2ccccc2C12CCN(Cc1cccc(OCCO)c1)CC2,1.07,
COc1ccc(CN2CCN(Cc3cc(C(C)C)[nH]n3)CC2CCO)cc1C (stereo unspecified),,0.983
Cc1cccc(-c2cccc(NC(=O)C3CCCN3Cc3nccn3C)c2)c1 (stereo unspecified),0.438,
CC(C)c1nc(CNC(=O)c2ccc(NC(C)C3CC3)nc2)no1 (stereo unspecified),,1.18
CCc1csc(CNC(=O)c2ccc(N3CCCC(O)C3)nc2)n1 (stereo unspecified),,0.852
CC(C)c1ccc(CN2CCCC3(CCN(C(=O)c4cccnc4)C3)C2=O)cc1 (stereo unspecified),,1.2
CC(C)c1ccc(CN2CCCC3(CCN(C(=O)c4ccccn4)C3)C2=O)cc1 (stereo unspecified),,0.968
OCc1ccc(CN2CCCC(Nc3ccc(F)c(F)c3)C2)o1 (stereo unspecified),,0.805
COC(=O)[C@@H]1CCCN1C(=O)c1c(OC)cc(=O)n2c1CCN(C(=O)C#Cc1ccccc1)CC2,0.881,
Cn1c(C(=O)N2CCC(n3nccc3NC(=O)C3CCOC3)CC2)cc2ccccc21 (stereo unspecified),0.81,
COCCCN1C(=O)CC(CC(=O)N2CCN(C3CCCC3)CC2)(c2ccccc2Cl)C1=O (stereo unspecified),0.862,
O=C1O[C@@H]2CN(c3ncccc3Cl)C[C@@H]2N1C1CCCC1,0.705,
CCC(C)CN1CCCC(c2nc(-c3ccncc3)ncc2-c2ccccc2)C1 (stereo unspecified),0.686,
CSc1nccc(-c2cc(Cl)c3c(c2)CC(CNC(=O)c2cc(C(C)C)on2)O3)n1 (stereo unspecified),0.529,
CC(C)C(=O)NC1CC(=O)N(CCc2cccc(Cl)c2)C1 (stereo unspecified),,0.936
COc1ccc(CCNC(=O)C2CCC(=O)N(C3CCCC3)C2)cc1 (stereo unspecified),,0.934

SMILES,bacterial growth OD600 (polymyxin B 0.75 µg/mL),bacterial growth OD600 (polymyxin B 1 µg/mL)
CC(=O)Nc1ccc(CN2CCCC(N3CCN(Cc4ccc5c(c4)OCO5)CC3)C2)cc1 (stereo unspecified),,0.925
Cn1cc(C(=O)N2CCC(n3nccc3NC(=O)C3CCOC3)CC2)c2ccccc21 (stereo unspecified),,0.905
CN1CCC(CN(CCc2ccccc2)C(=O)c2ccc3c(c2)OCCO3)CC1,,1.19
COc1ccc(C(=O)C2CCCN(Cc3ccc(SC)cc3)C2)cc1OC (stereo unspecified),,0.854
Cc1nc(-c2ccncc2)ncc1C(C)NCc1ccccn1 (stereo unspecified),0.776,
COc1cccc(-c2cc(CC3(O)CCN(CCCSC)CC3)on2)c1,,0.836
COCCNC(=O)c1cccc(OC2CCN(C3C4CC5CC(C4)CC3C5)CC2)c1 (stereo unspecified),,1.03
CN(C(=O)c1cc(Cn2ccc3ccccc32)[nH]n1)C1CCOCC1,0.838,
CCOC(=O)C1(Cc2ccc(Cl)cc2)CCN(Cc2ccon2)CC1,,0.78
COCCN(C)C(=O)c1coc(COc2ccccc2)n1,,0.777
O=C1N(Cc2cccc(F)c2F)CCCC1(O)CNC1CCCC1 (stereo unspecified),0.799,
O=C(CCC1(Cc2cccs2)CCC(=O)N1)NCc1ccccc1OC(F)(F)F (stereo unspecified),0.752,
COc1cc(Cl)ccc1OCc1cc(C(=O)N2CCN(C3CCCCC3)CC2)no1,,0.859
CN1CCCCC1C(=O)NCc1cccnc1-n1cnc2ccccc21 (stereo unspecified),,0.887
COc1ccc(CN2CCN(C3CCCC3)CC2)cc1OCC(O)CN1CCCCC1 (stereo unspecified),,1.09

# Two records drawn at random from the list so far:
SMILES,bacterial growth OD600 (polymyxin B 0.75 µg/mL),bacterial growth OD600 (polymyxin B 1 µg/mL)
COc1ccc(CN2CCN(C3CCCC3)CC2)cc1OCC(O)CN1CCCCC1 (stereo unspecified),,1.09
O=C1N(Cc2cccc(F)c2F)CCCC1(O)CNC1CCCC1 (stereo unspecified),0.799,

# Reference: the supplement of paper PMC12889115
